Data published in publication PMC11788964, “Clinical Pharmacology and Approach to Dose Selection of Emestedastat, a Novel Tissue Cortisol Synthesis Inhibitor for the Treatment of Central Nervous System Disease” (Clinical Pharmacology in Drug Development, 2025).

System: HPA axis hormones
Experiment: HPA axis endocrinology (plasma or serum hormones) in clinical trials
Format: in vivo, human

SMILES: O=C(c1csc(-c2cn[nH]c2)c1)N1C2CCC1CC(O)(c1ncccn1)C2 (centres unmarked) [emestedastat, (5‐(1H‐Pyrazol‐4‐yl)thiophen‐3‐yl)(3‐hydroxy‐3‐(pyrimidin‐2‐yl)‐8 azabicyclo[3.2.1]octan‐8‐yl) methanone]
- plasma cortisol change from baseline, difference between treatments (XanADu trial, 10 mg daily vs placebo, weeks 4, 8, 12, P = .216): no differences
- ACTH change from baseline across trials (end of treatment, MAD, XanADu, XanaMIA‐DR, no dose‐response): approximately doubled from baseline
